Article PMC10893103, “Cyclodextrin-Enabled Enantioselective Complexation Study of Cathinone Analogs” (Molecules, 2024)

Columns and labels:
[1] = Chiral CE enantioseparation screening, pH 4.5
[2] = Affinity capillary electrophoresis (ACE), pH 7.4; settings: 30 mM phosphate buffer pH 7.4; at the optimal CD concentration printed in brackets beside the value
Procedure, shortened: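 Mobility-shift ACE of cathinone analogues with cyclodextrins (0.25–20 mM in BGE) in 30 mM phosphate pH 7.4, 25 °C, fused-silica capillary, 15 kV, UV 215 nm, DMSO as EOF marker. Mobilities obtained by HVL peak fitting; complex stability constants corrected for viscosity and ionic strength.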

[3] = Chiral CE enantioseparation screening, pH 4.5; remark: listed apart in the source
[4] = Chiral CE enantioseparation screening, pH 4.5; remark: listed apart in the source
[5] = Chiral CE enantioseparation screening, pH 4.5; remark: listed apart in the source
[6] = Chiral CE enantioseparation screening, pH 4.5; remark: listed apart in the source
[7] = 20 mM acetate buffer pH 4.5, CD 1 mM
[8] = 20 mM acetate buffer pH 4.5, CD 5 mM
[9] = 20 mM acetate buffer pH 4.5, CD 10 mM

Row | Compound | Enantioseparation (Rs) of MDPV [1, 7] | Enantioseparation (Rs) of MDPV [1, 8] | Enantioseparation (Rs) of MDPV [1, 9] | MDPV maximal enantioresolution Rs [2] | Mephedrone maximal enantioresolution Rs [2] | Enantioseparation (Rs) of Butylone [3, 7] | Enantioseparation (Rs) of Butylone [3, 8] | Enantioseparation (Rs) of Butylone [3, 9] | Enantioseparation (Rs) of Mephedrone [4, 7] | Enantioseparation (Rs) of Mephedrone [4, 8] | Enantioseparation (Rs) of Mephedrone [4, 9] | Enantioseparation (Rs) of 4-MEC [5, 7] | Enantioseparation (Rs) of 4-MEC [5, 8] | Enantioseparation (Rs) of 4-MEC [5, 9] | Enantioseparation (Rs) of Flephedrone [6, 7] | Enantioseparation (Rs) of Flephedrone [6, 8] | Enantioseparation (Rs) of Flephedrone [6, 9] | 4-MEC maximal enantioresolution Rs [2] | Butylone maximal enantioresolution Rs [2] | Flephedrone maximal enantioresolution Rs [2]
1 | carboxyethylated-β-CD [CE-β-CD] | 0 | 1.5 | 1.1 | 1.6 | 0.8 | 0 | 0 | 0 | 0.1 | 0 | 0.2 | 0.2 | 0 | 0 | 0 | 0 | 0 | – | – | –
2 | O=C(O)CCSC[C@H]1O[C@@H]2O[C@H]3[C@H](O)[C@@H](O)[C@@H](O[C@H]4[C@H](O)[C@@H](O)[C@@H](O[C@H]5[C@H](O)[C@@H](O)[C@@H](O[C@H]6[C@H](O)[C@@H](O)[C@@H](O[C@H]7[C@H](O)[C@@H](O)[C@@H](O[C@H]1[C@H](O)[C@H]2O)O[C@@H]7CSCCC(=O)O)O[C@@H]6CSCCC(=O)O)O[C@@H]5CSCCC(=O)O)O[C@@H]4CSCCC(=O)O)O[C@@H]3CSCCC(=O)O [SAX, hexakis-(6-deoxy-6-(2-carboxyethyl)thio)-α-CD] | 0.9 | 1.1 | 1.8 | 1.3 | – | 0 | 0 | 0 | 0 | – | – | 0 | – | – | 0 | 0 | 0 | – | – | –
3 | sulfobutyl-ether-α-CD [SBE-α-CD] | – | 0.5 | 0.8 | 0.5 | 2.5 | 0.4 | 0.9 | 1.5 | 1.5 | 1.8 | 2.3 | 0.9 | 1.6 | 2.2 | 0.3 | 0.4 | 0.5 | 2.1 | 1.1 | –
4 | carboxymethylated-α-CD [CM-α-CD] | 1.7 | 2.9 | 5.5 | 3.3 | 1.7 | 0.3 | 0.5 | 0.8 | 0.6 | 1.7 | 0.8 | 0.4 | 1.5 | 0.6 | 0.5 | 0.9 | 1.2 | 1.4 | 0.6 | 0.9
5 | CC(=O)O[C@@H]1[C@@H](OC(C)=O)[C@H]2O[C@H]3[C@H](OC(C)=O)[C@@H](OC(C)=O)[C@@H](O[C@H]4[C@H](OC(C)=O)[C@@H](OC(C)=O)[C@@H](O[C@H]5[C@H](OC(C)=O)[C@@H](OC(C)=O)[C@@H](O[C@H]6[C@H](OC(C)=O)[C@@H](OC(C)=O)[C@@H](O[C@H]7[C@H](OC(C)=O)[C@@H](OC(C)=O)[C@@H](O[C@H]8[C@H](OC(C)=O)[C@@H](OC(C)=O)[C@@H](O[C@@H]1[C@@H](COS(=O)(=O)O)O2)O[C@@H]8COS(=O)(=O)O)O[C@@H]7COS(=O)(=O)O)O[C@@H]6COS(=O)(=O)O)O[C@@H]5COS(=O)(=O)O)O[C@@H]4COS(=O)(=O)O)O[C@@H]3COS(=O)(=O)O [HDAS-β-CD, heptakis-(2,3-O-diacethyl, 6-O-sulfo)-β-CD] | 1.4 | 6.1 | 8.5 | 2.3 | 8.6 | 3.7 | 9.5 | 11.4 | 2.1 | 6.2 | 8.4 | 2.7 | 7.3 | 7.7 | 5.1 | 13.1 | 8.0 | 7.9 | – | 2.8
6 | carboxymethylated-β-CD [CM-β-CD] | 1.6 | 2.1 | 3.5 | 3.3 | 0.7 | 0.6 | 0.3 | 0.4 | 0 | 0.1 | 0.4 | 0.3 | 0.4 | 0.5 | 0.4 | 0.8 | 0.8 | 0.6 | 0.4 | 1.3
7 | O=C(O)CCSC[C@H]1O[C@@H]2O[C@H]3[C@H](O)[C@@H](O)[C@@H](O[C@H]4[C@H](O)[C@@H](O)[C@@H](O[C@H]5[C@H](O)[C@@H](O)[C@@H](O[C@H]6[C@H](O)[C@@H](O)[C@@H](O[C@H]7[C@H](O)[C@@H](O)[C@@H](O[C@H]8[C@H](O)[C@@H](O)[C@@H](O[C@H]9[C@H](O)C(O)[C@@H](O[C@H]1[C@H](O)[C@H]2O)O[C@@H]9CSCCC(=O)O)O[C@@H]8CSCCC(=O)O)O[C@@H]7CSCCC(=O)O)O[C@@H]6CSCCC(=O)O)O[C@@H]5CSCCC(=O)O)O[C@@H]4CSCCC(=O)O)O[C@@H]3CSCCC(=O)O (stereo partly drawn) [SGX, octakis(6-deoxy-6-(2-carboxyethyl)thio)-γ-CD] | 2.4 | 0 | 0 | 2.2 | 2.5 | 0 | 0 | 0 | 0 | 0.8 | 0.7 | 0.4 | 0.9 | 0.9 | 0 | 0 | 0.6 | 1.3 | – | –
8 | sulfated-β-CD [S-β-CD] | 0.6 | – | – | – | 4.8 | 0.5 | – | – | 1.6 | 3.1 | – | 1.9 | 4.2 | – | 0.1 | 0.6 | 0.9 | 5.0 | – | –
